Measurements: publication PMC9122528
These are yes or no findings as the source states them, for the method shown. In cells and extracts the contact can be indirect. Binding calls can cover weak binding; strength is not graded here.

Tests used:
[1] = target: μ2-GFP (μ2 protein of MRV T3D^S with a C-terminal GFP moiety) (Mammalian orthoreovirus serotype 3 strain Dearing (T3D^S)); test: co-IP; GFP-tagged μ2 constructs transfected in 293T (24 h), lysate (1% Triton X-100, 150 mM NaCl, 20 mM Tris-HCl pH 7.5) DNAse and RNAse treated, GFP-Trap beads 4 h at 4°C, western blot of endogenous partners
[2] = target: GFP-μ2 (μ2 protein of MRV T3D^S with an N-terminal GFP moiety) (Mammalian orthoreovirus serotype 3 strain Dearing (T3D^S)); test: as above

Binder | binding [1] | binding [2]
PRPF6 (protein, UniProt O94906 1-941) MNKKKKPFLGMPAPLGYVPGLGRGATGFTTRSDIGPARDANDPVDDRHAPPGKRTVGDQMKKNQAADDDDEDLNDTNYDEFNGYAGSLFSSGPYEKDDEEADAIYAALDKRMDERRKERREQREKEEIEKYRMERPKIQQQFSDLKRKLAEVTEEEWLSIPEVGDARNKRQRNPRYEKLTPVPDSFFAKHLQTGENHTSVDPRQTQFGGLNTPYPGGLNTPYPGGMTPGLMTPGTGELDMRKIGQARNTLMDMRLSQVSDSVSGQTVVDPKGYLTDLNSMIPTHGGDINDIKKARLLLKSVRETNPHHPPAWIASARLEEVTGKLQVARNLIMKGTEMCPKSEDVWLEAARLQPGDTAKAVVAQAVRHLPQSVRIYIRAAELETDIRAKKRVLRKALEHVPNSVRLWKAAVELEEPEDARIMLSRAVECCPTSVELWLALARLETYENARKVLNKARENIPTDRHIWITAAKLEEANGNTQMVEKIIDRAITSLRANGVEINREQWIQDAEECDRAGSVATCQAVMRAVIGIGIEEEDRKHTWMEDADSCVAHNALECARAIYAYALQVFPSKKSVWLRAAYFEKNHGTRESLEALLQRAVAHCPKAEVLWLMGAKSKWLAGDVPAARSILALAFQANPNSEEIWLAAVKLESENDEYERARRLLAKARSSAPTARVFMKSVKLEWVQDNIRAAQDLCEEALRHYEDFPKLWMMKGQIEEQKEMMEKAREAYNQGLKKCPHSTPLWLLLSRLEEKIGQLTRARAILEKSRLKNPKNPGLWLESVRLEYRAGLKNIANTLMAKALQECPNSGILWSEAIFLEARPQRRTKSVDALKKCEHDPHVLLAVAKLFWSQRKITKAREWFHRTVKIDSDLGDAWAFFYKFELQHGTEEQQEEVRKRCESAEPRHGELWCAVSKDIANWQKKIGDILRLVAGRIKNTF | binds | binds
U2AF35 (protein, UniProt Q01081 1-240) MAEYLASIFGTEKDKVNCSFYFKIGACRHGDRCSRLHNKPTFSQTIALLNIYRNPQNSSQSADGLRCAVSDVEMQEHYDEFFEEVFTEMEEKYGEVEEMNVCDNLGDHLVGNVYVKFRREEDAEKAVIDLNNRWFNGQPIHAELSPVTDFREACCRQYEMGECTRGGFCNFMHLKPISRELRRELYGRRRKKHRSRSRSRERRSRSRDRGRGGGGGGGGGGGGRERDRRRSRDRERSGRF | no binding | no binding
